# Results reported in PubChem BioAssay AID504467 (National Center for Advancing Translational Sciences (NCATS), 2011).
# In all, about 330,000 compounds went through this assay and about 7,700 (2.3%) were called active. Inconclusive means that the source gave no clear call. Such entries were picked first, then a sample of the others. Calls follow the shape of the dose curve; as a rule, active = well fitted inhibition curve with a large enough effect; inconclusive = small, poorly fitted or top-dose-only effect, or effect the other way; inactive = flat fitted curve, though single readings scatter. Where the call is inconclusive, the potency comes from a doubtful curve fit.
# Test: qHTS screen for small molecules that inhibit ELG1-dependent DNA repair in human embryonic kidney (HEK293T) cells expressing luciferase-tagged ELG1; also: nearly all actives have a fitted effect of over 55% in size
# Conditions: HEK293T ELG1-luciferase reporter, luminescence, 16 h, DNA damage induced by 5-fluorouridine; activity change, negative = inhibition: at 46.1 µM (top of the series)
# Method in brief: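 Quantitative HTS, concentration-response format. 2,000 cells/well co-treated with 5-fluorouridine and compound, 16 hr in 5% CO2 at 37 °C; ONE-Glo luminescence read after 30 min.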
# % is scaled to controls: 0 for no effect and ±100 for the full control effect; potency is read from the fitted curve at half-maximal effect.
SMILES,"activity change, negative = inhibition",Potency
O=C(N/N=C/c1ccccn1)c1[nH]c2ccc([N+](=O)[O-])cc2c1-c1ccccc1,inactive: -9.77%,–
COc1ccc(OCC(=O)Nc2ccc(S(=O)(=O)Nc3nc(C)cc(C)n3)cc2)cc1,inactive: 7.65%,–
COC(=O)c1ccc(-c2noc(CN(C)Cc3ccncc3C)n2)cc1,–,"inconclusive: 16.4 µM [inhibitor, partial curve]"
Cc1ccc(P(=Nc2ccccc2)(N2CCOCC2)N2CCOCC2)o1,–,"inconclusive: 20.6 µM [activator, partial curve, poor fit]"
CN(C)S(=O)(=O)N1CCN(c2ccc([N+](=O)[O-])c(N3CCCCC3)c2)CC1,inactive: -18.9%,–
COc1cc(OC)c(C(=O)/C=C/c2ccc(OCc3ccccc3)c(OC)c2)c(OC)c1,–,"inconclusive: 25.9 µM [inhibitor, single point]"
S=C(Nc1ccc2c(c1)OCCO2)Nc1ccccc1Cl,–,"inconclusive: 18.3 µM [activator, single point]"
Cc1cc(C(=O)CN2C(=O)C(=O)N(Cc3ccccc3)C2=O)c(C)n1CC1COc2ccccc2O1 (centres undefined),–,active: 6.51 µM
Cc1c(C)c2cc(Cl)c(O)c(CN3CCCCC3)c2oc1=O,–,"inconclusive: 29.1 µM [activator, single point]"
CC(C)(C)NS(=O)(=O)c1ccc(CCC(=O)Nc2cc(Cl)ccc2Oc2ccccc2)cc1,–,"inconclusive: 23.1 µM [inhibitor, single point]"
Cc1cc(Br)ccc1S(=O)(=O)NCc1ccccc1,inactive: 11.3%,–
COc1ccc(NC(=O)CN(C)C(=O)c2cn(-c3ccccc3)nc2-c2cccs2)cc1,–,"inconclusive: 23.1 µM [inhibitor, single point]"
Cc1ccc(S(=O)(=O)N2CCN(C(=O)CSc3n[nH]c(N)n3)CC2)c(C)c1,–,"inconclusive: 3.66 µM [inhibitor, single point]"
CCc1ccc(NC(=O)C(C)OC(=O)c2ccc(NS(=O)(=O)c3ccc(C)c([N+](=O)[O-])c3)cc2)cc1 (centres undefined),–,"inconclusive: 29.1 µM [inhibitor, partial curve, poor fit]"
Cc1ccccc1NC(=O)Cc1nc(COC(=O)c2cccc([N+](=O)[O-])c2)cs1,–,"inconclusive: 1.16 µM [activator, single point]"
Cc1cnc(NC(=O)c2ccccn2)s1,–,"inconclusive: 2.59 µM [activator, partial curve]"
COc1cc(OC)c(OC)cc1/C=C/c1cc(C(F)(F)F)[nH]c(=O)n1,inactive: 7.66%,–
O=C(Nc1ccc(Cl)cc1)NC1CCCCC1,–,"inconclusive: 11.6 µM [activator, partial curve]"
O=C(OC(C(=O)Nc1cc(Cl)cc(Cl)c1)c1ccccc1)C1=COCCO1 (centres undefined),inactive: -9.99%,–
CCN(CC)CCCn1c(=S)[nH]c2ncccc2c1=O,–,"inconclusive: 16.4 µM [activator, partial curve, poor fit]"
CSc1nnc2c3c4c(sc3nc(-n3nc(C)cc3C)n12)COC(C)(C)C4,–,active: 13 µM
O=C(Nc1ccc(N2CCOCC2)cc1)Nc1ccc(Cl)c(Cl)c1,–,"inconclusive: 10.3 µM [activator, partial curve]"
COc1ccc(/C=N/NC(=O)c2[nH]nc3c2CCc2ccccc2-3)cc1OC,inactive: -2.62%,–
CC(C)=C(NC(=O)c1ccccc1)C(=O)N/N=C/c1ccc(O)cc1,–,"inconclusive: 18.4 µM [activator, single point]"
CCOc1ccccc1NC(=O)CN(C)S(=O)(=O)c1cccc2nsnc12,–,"inconclusive: 20.6 µM [inhibitor, single point]"

SMILES,"activity change, negative = inhibition",Potency
Cc1ccc(-c2nnn(CC(=O)N(c3ccc(F)cc3)C(C(=O)NC3CCCC3)c3ccncc3)n2)o1 (centres undefined),–,"inconclusive: 20.6 µM [activator, partial curve]"
CC(C)(C)C(=O)Nc1ccc(N=Nc2ccccc2)cc1,inactive: 10.7%,–
CC(Cc1ccccc1)C(=O)Nc1ccccc1 (centres undefined),–,"inconclusive: 20.6 µM [activator, partial curve, poor fit]"
Cc1cc(C)nc(-n2nc(C)c(Sc3ccc(F)cc3)c2N)n1,–,"inconclusive: 2.59 µM [activator, partial curve]"
CCOC(=O)C1CCCN(C(=O)Cn2sc3nc(C)cc(C)c3c2=O)C1 (centres undefined),inactive: 23.5%,–
O=C(O)c1ccccc1Nc1ccnc(C(F)(F)F)c1,inactive: -3.12%,–
O=C1CN(C(=O)CNCc2ccc(Cl)cc2)c2ccccc2N1,inactive: -10%,–
N#Cc1cc(N)ccc1-n1cccc1,inconclusive: 45.4% [activator],–
COc1cc(S(=O)(=O)N(CCc2ccccc2)Cc2cccs2)ccc1-n1cnnn1,inactive: 10.7%,–
O=c1[nH]c(-c2ccc(O)cc2)nc2scc(-c3cccs3)c12,–,"inconclusive: 13 µM [activator, partial curve]"
COc1cccc(NC(=O)c2cc3c(=O)n4ccccc4nc3n(CC(C)C)c2=N)c1,–,"inconclusive: 18.3 µM [inhibitor, single point]"
CNCC/C=C1/c2ccccc2CSc2ccccc21,inactive: 7.56%,–
Cc1c(C(=O)N2CCc3ccccc3C2)oc2ccc(Br)cc12,–,"inconclusive: 25.9 µM [activator, single point]"
COc1ccc(N2CCN(C(=O)c3cc4c(-c5ccc(Cl)cc5)nn(C)c4s3)CC2)cc1,inactive: -9.39%,–
COCCN1CCC(CNCc2c(C(=O)N3CCCCC3)nc3c(C)cccn23)C1 (centres undefined),–,"inconclusive: 4.11 µM [inhibitor, partial curve, poor fit]"
Cc1ccc(CNC(=O)CSc2nnc3c(n2)[nH]c2ccccc23)cc1,–,"inconclusive: 0.116 µM [inhibitor, full curve]"
Cc1ccccc1CN1[C@@H](CC2CCCCC2)COCCS1(=O)=O,inactive: 1.69%,–
COc1cc(CN(C)CC(=O)c2[nH]c(C)c(C(C)=O)c2C)ccc1OC(F)F,–,"inconclusive: 4.11 µM [inhibitor, partial curve, poor fit]"
Cc1ccc(S(=O)(=O)CCC(=O)Nc2cc(Cl)ccc2-n2cncn2)cc1,inactive: 3.92%,–
CC(=O)c1sc(N/N=C\c2ccccc2O)nc1C,–,"inconclusive: 2.59 µM [activator, full curve]"
Cc1ccc(-c2cc(-c3ccccc3O)nc(N/N=C/c3cccnc3)n2)cc1,–,"inconclusive: 1.3 µM [inhibitor, full curve]"
COc1ccc(S(=O)(=O)N(CCCN2CCOCC2)Cc2ccc(OC)c(OC)c2)cc1,–,"inconclusive: 15.8 µM [inhibitor, single point]"
CCN(CC)S(=O)(=O)c1ccc(C)c(NC(=O)c2cc(C)oc2C)c1,–,"inconclusive: 18.3 µM [inhibitor, single point]"
COc1cc(/C=C(\C#N)C(=O)N2CCOCC2)ccc1OCc1ccccc1,–,"inconclusive: 20.6 µM [activator, single point]"
COC(=O)c1ccccc1NC(=O)CSc1[nH]c(=O)cc(C)c1C#N,inconclusive: 25.9% [activator],–

SMILES,"activity change, negative = inhibition",Potency
COc1cccc(NS(=O)(=O)c2ccc(-n3cccn3)cc2)c1,inactive: -9.94%,–
O=c1cc(CSc2nc3cc(Cl)ccc3o2)nc2sccn12,–,"inconclusive: 29.1 µM [inhibitor, single point]"
CC(C)C(=O)NC(=S)NCC(=O)c1ccccc1,inactive: 29.9%,–
CC(=O)c1sc(NC(=O)C(C)C)nc1C,inactive: -12.4%,–
CC1CCCC(C)N1C(=O)COC(=O)c1ccc(Br)o1 (centres undefined),inactive: 0%,–
COc1cc(OC)cc(C(=O)OCC(=O)Nc2ccc(N3CCCCC3)cc2)c1,–,"inconclusive: 20.6 µM [activator, single point]"
OCCn1c(-c2ccc3c(c2)OCO3)csc1=Nc1ccccc1,–,"inconclusive: 29.1 µM [inhibitor, single point]"
COc1cccc2cc(CC(=O)c3ccccc3)c(=O)oc12,–,"inconclusive: 23.1 µM [activator, single point]"
Cc1ccc(-c2cc(C(=O)Nc3ccccc3C)c3ccccc3n2)o1,–,"inconclusive: 29.1 µM [inhibitor, single point]"
Cc1cc(/C=C2/NC(=O)N(Cc3ccccc3F)C2=O)c(C)n1C,–,"inconclusive: 23.1 µM [inhibitor, partial curve]"
Cc1cc(C)n(-c2nc3ccccc3s2)n1,–,"inconclusive: 29.1 µM [activator, single point]"
COc1cccc(OC)c1C(=O)Nc1ccc(C(=O)NCc2ccccc2)cc1,inactive: 3.31%,–
O=C(COc1ccc(Oc2ccccc2)cc1)NCc1cn2ccccc2n1,–,"inconclusive: 3.66 µM [inhibitor, single point]"
CCCC(C)NC(=O)CN1C(=O)c2cccc3cccc1c23 (centres undefined),inactive: -10.3%,–
COc1ccccc1NC(=O)CSc1nnc(CC(=O)Nc2ccccc2)n1C,inactive: 13.3%,–
CNc1cccccc1=S,inactive: 9.12%,–
CN(CC(=O)N1CCCCC1)S(=O)(=O)c1ccc(Cl)cc1,–,"inconclusive: 4.61 µM [inhibitor, single point]"
CC(C)(C)OC(=O)NCCc1nnc(SCc2ccc(Cl)cc2Cl)o1,inactive: -19.3%,–
CCN(c1ccccc1)S(=O)(=O)c1cc(NC(=O)Nc2ccccc2C#N)ccc1Cl,–,active: 20.6 µM
Cc1cc(NC(=O)CCCSc2nc(-c3ccco3)cc(C(F)(F)F)n2)n(-c2ccccc2)n1,–,active: 16.4 µM
CCc1nccn1S(=O)(=O)c1cc(OC)c(Cl)cc1OC,–,"inconclusive: 8.2 µM [inhibitor, partial curve]"
Cc1cc(C)c(C(=O)NC2CC(C)(C)Cc3c2cnn3-c2ccccc2)o1 (centres undefined),inactive: -0.071%,–
Cc1nc(C)c(C(=O)NCCC(c2ccccc2)c2ccccc2)o1,–,active: 5.8 µM
CC(C)Oc1ccc(C(=O)CCN2CCCCC2)cc1,inactive: 11.2%,–

# Compounds above that have a CF3 group:
SMILES,"activity change, negative = inhibition",Potency
COc1cc(OC)c(OC)cc1/C=C/c1cc(C(F)(F)F)[nH]c(=O)n1,inactive: 7.66%,–
O=C(O)c1ccccc1Nc1ccnc(C(F)(F)F)c1,inactive: -3.12%,–
Cc1cc(NC(=O)CCCSc2nc(-c3ccco3)cc(C(F)(F)F)n2)n(-c2ccccc2)n1,–,active: 16.4 µM
